{"sequences": {"note": "Amino acid sequences for entries named in this document (tags omitted). Residues count along the entry.", "UniProt P63104, residues 1-230": "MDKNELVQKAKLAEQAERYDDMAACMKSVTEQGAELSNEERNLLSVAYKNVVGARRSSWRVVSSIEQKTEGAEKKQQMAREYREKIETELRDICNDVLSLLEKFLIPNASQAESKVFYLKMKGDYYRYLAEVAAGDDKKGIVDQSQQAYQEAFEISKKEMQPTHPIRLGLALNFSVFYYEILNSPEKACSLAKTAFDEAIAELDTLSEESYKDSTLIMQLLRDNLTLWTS"}, "source": "paper PMC10141581", "biological_target": "14-3-3ζ WT (human) (UniProt P63104)", "assay": "pull-down; the same eluates from 14-3-3ζ-Sepharose (WT, pSer58, nhpSer58) incubated with HEK293T lysate, read by Coomassie SDS-PAGE and Western blot; only the target purified", "note": "These are yes or no findings as the source states them, for the method shown. In cells and extracts the contact can be indirect. Some results given as binding are weak or reduced against the parent protein; the word gives no strength.", "data": [{"binder": "Bcl2-associated agonist of cell death (BAD) (protein, UniProt Q92934 1-168) MFQIPEFEPSEQEDSSSAERGLGPSPAGDGPSGSGKHHRQAPGLLWDASHQQEQPTSSSHHGGAGAVEIRSRHSSYPAGTEDDEGMGEEPSPFRGRSRSAPPNLWAAQRYGRELRRMSDEFVDSFKKGLPRPKSAGTATQMRQSSSWTRVFQSWWDRNLGRGSSAPSQ", "values": [{"measurement": "binding", "result": "binds"}]}]}
